Data as given in PubChem BioAssay AID1224827 (NIAID, 2016).
The deposit covers about 3,800 reagents; below is a random part of them. In the full data, about 2,200 (57%) are marked active. 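Active means a strong reporter change in either direction; calls are per siRNA, not per gene; qiagen siRNAs gave weaker effects.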 A number with no mark means an inactive call. Reagents against one gene are numbered here. Further read-outs or replicates are left out here.

- Test: 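Retest primary hits on a TNF reporter with six siRNAs per gene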 (follow-up of hits)
- Cell system: RAW264.7 G9 mouse macrophage reporter clone
- Reagents: single siRNA against mouse genes, 100 nM siRNA
- Timing: siRNA for 2 days, then LPS about 16 h
- Treatment: bacterial lipopolysaccharide (LPS), 10 ng/ml, cells fixed after overnight (about 16 h) stimulation
- Read-out: 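Imaged nuclear TNF reporter intensity, background removed, scaled per plate and to non-targeting control wells, as z-scores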
- Scale: TNF reporter z-score, mean: higher = stronger Tnf promoter reporter signal; gene median z, three same-vendor siRNAs: higher = stronger Tnf reporter signal for the gene
- Hit rule: 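An siRNA is called active when its mean z-score over replicates is at least +2 or at most -2; control wells get no call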

Mob3b (MOB kinase activator 3B) #1: TNF reporter z-score, mean = -0.967; gene median z, three same-vendor siRNAs = -5.16
Mob3b (MOB kinase activator 3B) #2: TNF reporter z-score, mean = -5.23 (active); gene median z, three same-vendor siRNAs = -5.16
Mob3b (MOB kinase activator 3B) #3: TNF reporter z-score, mean = -5.41 (active); gene median z, three same-vendor siRNAs = -5.16
Or4f7 (olfactory receptor family 4 subfamily F member 7) #1: TNF reporter z-score, mean = -0.73; gene median z, three same-vendor siRNAs = -1.65
Or4f7 (olfactory receptor family 4 subfamily F member 7) #2: TNF reporter z-score, mean = -0.969; gene median z, three same-vendor siRNAs = -1.65
Or4f7 (olfactory receptor family 4 subfamily F member 7) #3: TNF reporter z-score, mean = -4.97 (active); gene median z, three same-vendor siRNAs = -1.65
Or4f7 (olfactory receptor family 4 subfamily F member 7) #4: TNF reporter z-score, mean = 3.11 (active); gene median z, three same-vendor siRNAs = 1.25
Or4f7 (olfactory receptor family 4 subfamily F member 7) #5: TNF reporter z-score, mean = 2.73 (active); gene median z, three same-vendor siRNAs = 1.25
Or4f7 (olfactory receptor family 4 subfamily F member 7) #6: TNF reporter z-score, mean = -2.93 (active); gene median z, three same-vendor siRNAs = 1.25
Rps3 (ribosomal protein S3) #1: TNF reporter z-score, mean = -0.76; gene median z, three same-vendor siRNAs = -4.66
Rps3 (ribosomal protein S3) #2: TNF reporter z-score, mean = -4.66 (active); gene median z, three same-vendor siRNAs = -4.66
Rps3 (ribosomal protein S3) #3: TNF reporter z-score, mean = -5.55 (active); gene median z, three same-vendor siRNAs = -4.66
Rps3 (ribosomal protein S3) #4: TNF reporter z-score, mean = 3.31 (active); gene median z, three same-vendor siRNAs = -0.465
Rps3 (ribosomal protein S3) #5: TNF reporter z-score, mean = 1.9; gene median z, three same-vendor siRNAs = -0.465
Rps3 (ribosomal protein S3) #6: TNF reporter z-score, mean = -1.24; gene median z, three same-vendor siRNAs = -0.465
Batf3 (basic leucine zipper transcription factor, ATF-like 3) #1: TNF reporter z-score, mean = 1.21; gene median z, three same-vendor siRNAs = -3.28
Batf3 (basic leucine zipper transcription factor, ATF-like 3) #2: TNF reporter z-score, mean = -3.71 (active); gene median z, three same-vendor siRNAs = -3.28
Batf3 (basic leucine zipper transcription factor, ATF-like 3) #3: TNF reporter z-score, mean = -4.04 (active); gene median z, three same-vendor siRNAs = -3.28
Batf3 (basic leucine zipper transcription factor, ATF-like 3) #4: TNF reporter z-score, mean = 4.6 (active); gene median z, three same-vendor siRNAs = 0.586
Batf3 (basic leucine zipper transcription factor, ATF-like 3) #5: TNF reporter z-score, mean = 0.707; gene median z, three same-vendor siRNAs = 0.586
Batf3 (basic leucine zipper transcription factor, ATF-like 3) #6: TNF reporter z-score, mean = -3.18 (active); gene median z, three same-vendor siRNAs = 0.586

4 entries from above in another layout:
Gene	siRNA no.	TNF reporter z-score, mean	gene median z, three same-vendor siRNAs
Rps3 (ribosomal protein S3)	2	-4.66 (active)	-4.66
Rps3 (ribosomal protein S3)	3	-5.55 (active)	-4.66
Rps3 (ribosomal protein S3)	4	3.31 (active)	-0.465
Rps3 (ribosomal protein S3)	5	1.9	-0.465

The listing continues.
Cd52 (CD52 antigen) #1: TNF reporter z-score, mean = -0.191; gene median z, three same-vendor siRNAs = -3.41
Cd52 (CD52 antigen) #2: TNF reporter z-score, mean = -3.6 (active); gene median z, three same-vendor siRNAs = -3.41
Cd52 (CD52 antigen) #3: TNF reporter z-score, mean = -3.94 (active); gene median z, three same-vendor siRNAs = -3.41
Cd52 (CD52 antigen) #4: TNF reporter z-score, mean = 0.53; gene median z, three same-vendor siRNAs = -1.14
Cd52 (CD52 antigen) #5: TNF reporter z-score, mean = -1.18; gene median z, three same-vendor siRNAs = -1.14
Cd52 (CD52 antigen) #6: TNF reporter z-score, mean = -1.74; gene median z, three same-vendor siRNAs = -1.14
Ap2m1 (adaptor-related protein complex 2, mu 1 subunit) #1: TNF reporter z-score, mean = 4.32 (active); gene median z, three same-vendor siRNAs = -2.74
Ap2m1 (adaptor-related protein complex 2, mu 1 subunit) #2: TNF reporter z-score, mean = -2.74 (active); gene median z, three same-vendor siRNAs = -2.74
Ap2m1 (adaptor-related protein complex 2, mu 1 subunit) #3: TNF reporter z-score, mean = -3.61 (active); gene median z, three same-vendor siRNAs = -2.74
Ap2m1 (adaptor-related protein complex 2, mu 1 subunit) #4: TNF reporter z-score, mean = 5.69 (active); gene median z, three same-vendor siRNAs = -0.501
Ap2m1 (adaptor-related protein complex 2, mu 1 subunit) #5: TNF reporter z-score, mean = -0.501; gene median z, three same-vendor siRNAs = -0.501
Ap2m1 (adaptor-related protein complex 2, mu 1 subunit) #6: TNF reporter z-score, mean = -3.48 (active); gene median z, three same-vendor siRNAs = -0.501
Ephx2 (epoxide hydrolase 2, cytoplasmic) #1: TNF reporter z-score, mean = 1.56; gene median z, three same-vendor siRNAs = -3.05
Ephx2 (epoxide hydrolase 2, cytoplasmic) #2: TNF reporter z-score, mean = -3.05 (active); gene median z, three same-vendor siRNAs = -3.05
Ephx2 (epoxide hydrolase 2, cytoplasmic) #3: TNF reporter z-score, mean = -4.08 (active); gene median z, three same-vendor siRNAs = -3.05
Ephx2 (epoxide hydrolase 2, cytoplasmic) #4: TNF reporter z-score, mean = 2.07 (active); gene median z, three same-vendor siRNAs = -3.05
Ephx2 (epoxide hydrolase 2, cytoplasmic) #5: TNF reporter z-score, mean = -3.05 (active); gene median z, three same-vendor siRNAs = -3.05
Ephx2 (epoxide hydrolase 2, cytoplasmic) #6: TNF reporter z-score, mean = -3.96 (active); gene median z, three same-vendor siRNAs = -3.05
Nanp (N-acetylneuraminic acid phosphatase) #1: TNF reporter z-score, mean = 3.58 (active); gene median z, three same-vendor siRNAs = -3.37
Nanp (N-acetylneuraminic acid phosphatase) #2: TNF reporter z-score, mean = -3.37 (active); gene median z, three same-vendor siRNAs = -3.37
Nanp (N-acetylneuraminic acid phosphatase) #3: TNF reporter z-score, mean = -4.23 (active); gene median z, three same-vendor siRNAs = -3.37
Nanp (N-acetylneuraminic acid phosphatase) #4: TNF reporter z-score, mean = 2.32 (active); gene median z, three same-vendor siRNAs = -1.03
Nanp (N-acetylneuraminic acid phosphatase) #5: TNF reporter z-score, mean = -1; gene median z, three same-vendor siRNAs = -1.03
Nanp (N-acetylneuraminic acid phosphatase) #6: TNF reporter z-score, mean = -3.53 (active); gene median z, three same-vendor siRNAs = -1.03
